Results deposited as PubChem BioAssay AID1259424 (University of Nebraska Medical Center, 2018)

Aim: 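Rank knockdowns across the genome by resemblance to the KSR1 depletion profile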 (primary screen)
Cells: human HCT116 colon cancer cells
Reagents: siRNA pool against human genes, 50 nM
Detection: 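Six signature mRNAs by branched-DNA multiplex assay, scaled to two housekeeping genes and non-targeting median, log2; matched to mean KSR1 knockdown profile by Pearson correlation and euclidean distance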
Reading the numbers: mean correlation with KSR1 profile: higher = expression change more like KSR1 knockdown
The whole screen tested about 14,000 reagents; below is an unselected part. 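Higher correlation or smaller distance means closer resemblance to KSR1 loss; control wells, including KSR1 knockdowns, recur on many plates.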 Further read-outs or replicates are left out here. Not stated in the record: the time to read-out.

target gene	mean correlation with KSR1 profile
TLE5	-0.467
HIBCH	-0.364
CRYGD	0.292
JARID2	0.237
MMP20	-0.273
TSPAN31	0.68
PAM	-0.0513
MYRIP	0.27
ABCB1	0.371
LDHC	0.831
SIRT4	-0.532
PSME4	-0.684
LDLRAP1	0.53
MMP15	-0.252
GCC2-AS1	0.665
ADCY4	-0.458
TRAPPC11	-0.334
ATP6V0E1	-0.423
RBM17	-0.11
PLEKHB2	-0.202
RBBP8	-0.0519
LIPC	0.676
TOM1	-0.697
HUS1B	-0.135
IL20	-0.222
TOX2	0.712
CASP2	-0.319
KAT2A	-0.457
THAP11	-0.835
ALG5	0.146
GPR141	0.196
RAD54L2	0.0828
SEC31B	-0.285
ST18	0.668
GPR17	0.743
JMJD6	0.0975
POU4F3	-0.329
ZNF137P	-0.435
BBX	-0.351
UBE4A	-0.721
MTRES1	-0.404
KIR2DL5A	-0.311
DDC	0.000361
PPP1R1A	0.575
OLFML2B	-0.0955
HOXA10	0.482
ADH5	-0.103
SPTBN5	0.0593
ASTE1	-0.63
CALD1	-0.0286
OR6A2	0.675
XPNPEP2	0.612
KCNH8	0.327
IPO11	-0.553
GK2	0.497
SERAC1	0.608
TIAL1	0.559
BIN2	-0.362
MC5R	0.346
PCSK1	0.277
RGS8	-0.422
DNA2	-0.0715
ERCC6L	-0.519

Reprinted from above, 7 entries:
target gene	mean correlation with KSR1 profile
ZNF137P	-0.435
BBX	-0.351
UBE4A	-0.721
MTRES1	-0.404
KIR2DL5A	-0.311
DDC	0.000361
PPP1R1A	0.575
